Assay results taken from publication PMC13558869.
These are yes or no findings as the source states them, for the method shown. In cells and extracts the contact can be indirect. A yes stands for co-enrichment or nearness to the bait. Other partners may have been found. Where a sequence is shown, tags or fusion partners need not be part of it.

T1: UltraID_ZFP36L1 (UltraID fused to the N-terminus of ZFP36L1, co-expressed with GFP through P2A) (UniProt Q07352)
T1 sequence: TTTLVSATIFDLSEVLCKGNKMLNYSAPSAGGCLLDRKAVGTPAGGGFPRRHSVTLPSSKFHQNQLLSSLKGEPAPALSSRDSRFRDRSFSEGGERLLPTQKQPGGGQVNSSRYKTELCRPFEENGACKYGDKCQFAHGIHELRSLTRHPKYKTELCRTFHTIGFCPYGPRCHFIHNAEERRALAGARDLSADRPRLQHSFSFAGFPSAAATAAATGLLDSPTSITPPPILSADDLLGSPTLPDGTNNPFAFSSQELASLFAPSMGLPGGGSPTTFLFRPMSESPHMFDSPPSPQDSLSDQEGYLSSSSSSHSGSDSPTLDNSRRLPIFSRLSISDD

B1: GIGYF2 (protein, UniProt Q6Y7W6 1-1299)
chain: MAAETQTLNFGPEWLRALSSGGSITSPPLSPALPKYKLADYRYGREEMLALFLKDNKIPSDLLDKEFLPILQEEPLPPLALVPFTEEEQRNFSMSVNSAAVLRLTGRGGGGTVVGAPRGRSSSRGRGRGRGECGFYQRSFDEVEGVFGRGGGREMHRSQSWEERGDRRFEKPGRKDVGRPNFEEGGPTSVGRKHEFIRSESENWRIFREEQNGEDEDGGWRLAGSRRDGERWRPHSPDGPRSAGWREHMERRRRFEFDFRDRDDERGYRRVRSGSGSIDDDRDSLPEWCLEDAEEEMGTFDSSGAFLSLKKVQKEPIPEEQEMDFRPVDEGEECSDSEGSHNEEAKEPDKTNKKEGEKTDRVGVEASEETPQTSSSSARPGTPSDHQSQEASQFERKDEPKTEQTEKAEEETRMENSLPAKVPSRGDEMVADVQQPLSQIPSDTASPLLILPPPVPNPSPTLRPVETPVVGAPGMGSVSTEPDDEEGLKHLEQQAEKMVAYLQDSALDDERLASKLQEHRAKGVSIPLMHEAMQKWYYKDPQGEIQGPFNNQEMAEWFQAGYFTMSLLVKRACDESFQPLGDIMKMWGRVPFSPGPAPPPHMGELDQERLTRQQELTALYQMQHLQYQQFLIQQQYAQVLAQQQKAALSSQQQQQLALLLQQFQTLKMRISDQNIIPSVTRSVSVPDTGSIWELQPTASQPTVWEGGSVWDLPLDTTTPGPALEQLQQLEKAKAAKLEQERREAEMRAKREEEERKRQEELRRQQEEILRRQQEEERKRREEEELARRKQEEALRRQREQEIALRRQREEEERQQQEEALRRLEERRREEEERRKQEELLRKQEEEAAKWAREEEEAQRRLEENRLRMEEEAARLRHEEEERKRKELEVQRQKELMRQRQQQQEALRRLQQQQQQQQLAQMKLPSSSTWGQQSNTTACQSQATLSLAEIQKLEEERERQLREEQRRQQRELMKALQQQQQQQQQKLSGWGNVSKPSGTTKSLLEIQQEEARQMQKQQQQQQQHQQPNRARNNTHSNLHTSIGNSVWGSINTGPPNQWASDLVSSIWSNADTKNSNMGFWDDAVKEVGPRNSTNKNKNNASLSKSVGVSNRQNKKVEEEEKLLKLFQGVNKAQDGFTQWCEQMLHALNTANNLDVPTFVSFLKEVESPYEVHDYIRAYLGDTSEAKEFAKQFLERRAKQKANQQRQQQQLPQQQQQQPPQQPPQQPQQQDSVWGMNHSTLHSVFQTNQSNNQQSNFEAVQSGKKKKKQKMVRADPSLLGFSVNASSERLNMGEIETLDDY
B2: UBAP2 (protein, UniProt Q5T6F2 1-1119)
chain: MMTSVSSDHCRGAREKPQISAAQSTQPQKQVVQATAEQMRLAQVIFDKNDSDFEAKVKQLMEVTGKNQDECIVALHDCNGDVNKAINILLEGNSDTTSWETVGCKKKNFAKENSENKENREKKSEKESSRGRGNNNRKGRGGNRGREFRGEENGIDCNQVDKPSDRGKRARGRGFGRGRGRGAGRFSTQGMGTFNPADYSDSTSTDVCGTKLVVWEAAQNGADEGTELASNTHNIAQDLSNKSSYGLKGAWKNSVEEWTTEDWTEDLSETKVFTASSAPAENHILPGQSIDLVALLQKPVPHSQASEANSFETSQQQGFGQALVFTNSQHNNQMAPGTGSSTAVNSCSPQSLSSVLGSGFGELAPPKMANITSSQILDQLKAPSLGQFTTTPSTQQNSTSHPTTTTSWDLKPPTSQSSVLSHLDFKSQPEPSPVLSQLSQRQQHQSQAVTVPPPGLESFPSQAKLRESTPGDSPSTVNKLLQLPSTTIENISVSVHQPQPKHIKLAKRRIPPASKIPASAVEMPGSADVTGLNVQFGALEFGSEPSLSEFGSAPSSENSNQIPISLYSKSLSEPLNTSLSMTSAVQNSTYTTSVITSCSLTSSSLNSASPVAMSSSYDQSSVHNRIPYQSPVSSSESAPGTIMNGHGGGRSQQTLDTPKTTGPPSALPSVSSLPSTTSCTALLPSTSQHTGDLTSSPLSQLSSSLSSHQSSLSAHAALSSSTSHTHASVESASSHQSSATFSTAATSVSSSASSGASLSSSMNTANSLCLGGTPASASSSSSRAAPLVTSGKAPPNLPQGVPPLLHNQYLVGPGGLLPAYPIYGYDELQMLQSRLPVDYYGIPFAAPTALASRDGSLANNPYPGDVTKFGRGDSASPAPATTPAQPQQSQSQTHHTAQQPFVNPALPPGYSYTGLPYYTGMPSAFQYGPTMFVPPASAKQHGVNLSTPTPPFQQASGYGQHGYSTGYDDLTQGTAAGDYSKGGYAGSSQAPNKSAGSGPGKGVSVSSSTTGLPDMTGSVYNKTQTFDKQGFHAGTPPPFSLPSVLGSTGPLASGAAPGYAPPPFLHILPAHQQPHSQLLHHHLPQDAQSGSGQRSQPSSLQPKSQASKPAYGNSPYWTN
B3: ATXN2L (protein, UniProt Q8WWM7 1-1075)
chain: MLKPQPLQQPSQPQQPPPTQQAVARRPPGGTSPPNGGLPGPLATSAAPPGPPAAASPCLGPVAAAGSGLRRGAEGILAPQPPPPQQHQERPGAAAIGSARGQSTGKGPPQSPVFEGVYNNSRMLHFLTAVVGSTCDVKVKNGTTYEGIFKTLSSKFELAVDAVHRKASEPAGGPRREDIVDTMVFKPSDVMLVHFRNVDFNYATKDKFTDSAIAMNSKVNGEHKEKVLQRWEGGDSNSDDYDLESDMSNGWDPNEMFKFNEENYGVKTTYDSSLSSYTVPLEKDNSEEFRQRELRAAQLAREIESSPQYRLRIAMENDDGRTEEEKHSAVQRQGSGRESPSLASREGKYIPLPQRVREGPRGGVRCSSSRGGRPGLSSLPPRGPHHLDNSSPGPGSEARGINGGPSRMSPKAQRPLRGAKTLSSPSNRPSGETSVPPPPAVGRMYPPRSPKSAAPAPISASCPEPPIGSAVPTSSASIPVTSSVSDPGVGSISPASPKISLAPTDVKELSTKEPGRTLEPQELARIAGKVPGLQNEQKRFQLEELRKFGAQFKLQPSSSPENSLDPFPPRILKEEPKGKEKEVDGLLTSEPMGSPVSSKTESVSDKEDKPPLAPSGGTEGPEQPPPPCPSQTGSPPVGLIKGEDKDEGPVAEQVKKSTLNPNAKEFNPTKPLLSVNKSTSTPTSPGPRTHSTPSIPVLTAGQSGLYSPQYISYIPQIHMGPAVQAPQMYPYPVSNSVPGQQGKYRGAKGSLPPQRSDQHQPASAPPMMQAAAAAGPPLVAATPYSSYIPYNPQQFPGQPAMMQPMAHYPSQPVFAPMLQSNPRMLTSGSHPQAIVSSSTPQYPSAEQPTPQALYATVHQSYPHHATQLHAHQPQPATTPTGSQPQSQHAAPSPVQHQAGQAPHLGSGQPQQNLYHPGALTGTPPSLPPGPSAQSPQSSFPQPAAVYAIHHQQLPHGFTNMAHVTQAHVQTGITAAPPPHPGAPHPPQVMLLHPPQSHGGPPQGAVPQSGVPALSASTPSPYPYIGHPQGEQPGQAPGFPGGADDRIREFSLAGGIWHGRAEGLQVGQDARVLGGE
B4: DCP1B (protein, UniProt Q8IZD4 1-617)
chain: MAAVAAGGLVGKGRDISLAALQRHDPYINRIVDVASQVALYTFGHRANEWEKTDVEGTLFVYTRSASPKHGFTIMNRLSMENRTEPITKDLDFQLQDPFLLYRNARLSIYGIWFYDKEECQRIAELMKNLTQYEQLKAHQGTGAGISPVILNSGEGKEVDILRMLIKAKDEYTKCKTCSEPKKITSSSAIYDNPNLIKPIPVKPSENQQQRIPQPNQTLDPEPQHLSLTALFGKQDKATCQETVEPPQTLHQQQQQQQQQQEKLPIRQGVVRSLSYEEPRRHSPPIEKQLCPAIQKLMVRSADLHPLSELPENRPCENGSTHSAGEFFTGPVQPGSPHNIGTSRGVQNASRTQNLFEKLQSTPGAANKCDPSTPAPASSAALNRSRAPTSVTPVAPGKGLAQPPQAYFNGSLPPQTVGHQAHGREQSTLPRQTLPISGSQTGSSGVISPQELLKKLQIVQQEQQLHASNRPALAAKFPVLAQSSGTGKPLESWINKTPNTEQQTPLFQVISPQRIPATAAPSLLMSPMVFAQPTSVPPKERESGLLPVGGQEPPAAATSLLLPIQSPEPSVITSSPLTKLQLQEALLYLIQNDDNFLNIIYEAYLFSMTQAAMKKTM

The binders below were run against T1, UltraID_ZFP36L1 (UltraID fused to the N-terminus of ZFP36L1, co-expressed with GFP through P2A) (assay: proximity labelling; time course: UltraID_L1 T cells re-activated with αCD3/αCD28 for 0, 2, 5, 16 h; biotin added for 2 h, for 3 h (2-5 h) or for 9 h (5-16 h); streptavidin capture, MS; supervised classification into shapes).

| binding | Binder |
| --- | --- |
| binds | B1 |
| binds | B2 |
| binds | B3 |
| binds | B4 |

Each binder was assayed against T1, UltraID_ZFP36L1 (UltraID fused to the N-terminus of ZFP36L1, co-expressed with GFP through P2A) (assay: proximity labelling; UltraID_L1 in retrovirally transduced primary human T cells, rested or re-activated 16 h with αCD3/αCD28, with or without 500 μM biotin; biotinylated proteins captured from lysate on streptavidin beads and identified by MS; controls UltraID_GFP and no biotin; T cell screens 1 and 2 (the network of Fig 3A also draws on the Jurkat screen)).

| binding | Binder |
| --- | --- |
| binds | B1 |
| binds | B2 |
| binds | B3 |
| binds | B4 |
